Results taken from doi:10.64898/2025.12.14.694184 (bioRxiv, 2025).
Results are given in words; binding and its absence hold for the method and conditions named. In cells and extracts the contact can be indirect. Here binding means that the protein was enriched with, or labelled near, the bait; the list need not be complete. Where a sequence is shown, tags or fusion partners need not be part of it.

T1: mCLCC1-StrepTagII-FLAG-StrepTagII (mouse) (UniProt Q99LI2)
T1 sequence: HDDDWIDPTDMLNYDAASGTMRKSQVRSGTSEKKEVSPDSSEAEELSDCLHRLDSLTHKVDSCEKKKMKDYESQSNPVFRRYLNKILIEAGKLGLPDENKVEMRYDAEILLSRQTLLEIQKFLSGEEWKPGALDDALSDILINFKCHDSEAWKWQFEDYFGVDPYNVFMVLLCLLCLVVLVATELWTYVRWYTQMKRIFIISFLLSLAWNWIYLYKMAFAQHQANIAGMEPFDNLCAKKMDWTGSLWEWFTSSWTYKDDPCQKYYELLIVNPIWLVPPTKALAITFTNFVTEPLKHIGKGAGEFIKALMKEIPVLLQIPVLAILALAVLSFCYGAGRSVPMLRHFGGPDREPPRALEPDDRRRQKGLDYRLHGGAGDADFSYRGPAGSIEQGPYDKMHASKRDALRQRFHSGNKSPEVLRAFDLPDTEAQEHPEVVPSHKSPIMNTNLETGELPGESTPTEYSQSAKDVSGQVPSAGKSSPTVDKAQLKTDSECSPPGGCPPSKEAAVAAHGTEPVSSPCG


Target: T1, mCLCC1-StrepTagII-FLAG-StrepTagII (mouse)
Experiment: affinity purification with mass spectrometry

binding | Binder
binds | TorsinB (endogenous, mouse liver) (protein, UniProt Q9ER41 25-336) FEPVSVGIAIGAVSALTGYLSYTDFYCRFTECCHEERPLNTSALKLDLEEKLFGQHLATEVILKALTGFRNNKNSKKPLTLSLHGWAGTGKNFISQIVAENLYPKGLKSNFVHLFVSTLHFPHEQKIKVYQDQLQKWIRGNVSACGSSVFIFDEMDKLHPGIIDAIKPFLDYYEQVDGISYRRAIFIFLSNAGGDLITKTALDFWRAGRKREEIQLKDLEPVLSVGVFNNKHSGLWHSGLIDKNLIDYFIPFLPLEYKHVKMCVRAEMRARGAAVDEDVVTSVADEMTFFPKDEKIYSDKGCKTVQSRLDFH
binds | TorsinA (endogenous, mouse liver) (protein, UniProt Q9ER39 21-333) VEPISLSLALAGVLTTYISYPRLYCLFAECCGQMRSLSREALQKDLDNKLFGQHLAKKVILNAVSGFLSNPKPKKPLTLSLHGWTGTGKNFASKIIAENIYEGGLNSDYVHLFVATLHFPHASNITQYKDQLQMWIRGNVSACARSIFIFDEMDKMHAGLIDAIKPFLDYYDVVDEVSYQKAIFIFLSNAGAERITDVALDFWKSGKQREEIKLRDMEPALAVSVFNNKNSGFWHSSLIDRNLIDYFVPFLPLEYKHLKMCIRVEMQSRGYEVDEDIISKVAEEMTFFPKEEKVFSDKGCKTVFTKLDYYLDD
